# Where a chain is given by its changes, count along the chain named. Results are given in words; binding and its absence hold for the method and conditions named. In cells and extracts the contact can be indirect. Some binding calls cover weakened binding; strength is not graded here. Sequences can lack the tags named with a protein.
# T1: C-terminal protein A (pA)-tagged Rad3 (Saccharomyces cerevisiae) (UniProt P06839)
# T1 sequence: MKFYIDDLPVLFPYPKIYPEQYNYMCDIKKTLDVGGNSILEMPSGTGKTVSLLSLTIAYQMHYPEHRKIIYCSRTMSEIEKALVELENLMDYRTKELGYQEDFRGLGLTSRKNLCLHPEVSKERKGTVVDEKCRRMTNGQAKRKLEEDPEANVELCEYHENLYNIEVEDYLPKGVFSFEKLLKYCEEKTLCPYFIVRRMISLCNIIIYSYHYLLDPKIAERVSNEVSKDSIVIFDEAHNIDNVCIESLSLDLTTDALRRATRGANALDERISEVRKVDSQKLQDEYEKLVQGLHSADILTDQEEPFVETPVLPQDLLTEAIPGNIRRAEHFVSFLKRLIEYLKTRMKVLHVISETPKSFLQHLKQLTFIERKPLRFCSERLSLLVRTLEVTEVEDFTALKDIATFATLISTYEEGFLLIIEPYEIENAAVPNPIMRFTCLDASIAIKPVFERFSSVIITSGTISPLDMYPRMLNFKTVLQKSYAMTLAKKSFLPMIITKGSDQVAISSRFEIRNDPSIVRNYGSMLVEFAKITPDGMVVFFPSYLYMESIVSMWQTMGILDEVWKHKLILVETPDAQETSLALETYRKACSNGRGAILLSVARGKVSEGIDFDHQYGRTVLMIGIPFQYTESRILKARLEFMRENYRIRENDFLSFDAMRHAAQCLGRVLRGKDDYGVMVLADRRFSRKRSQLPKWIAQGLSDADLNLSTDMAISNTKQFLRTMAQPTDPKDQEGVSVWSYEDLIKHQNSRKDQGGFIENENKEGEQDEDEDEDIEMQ
# B1: Tfb3 (protein, UniProt Q03290 1-321)
# chain: MLMDEYEENKDMCPICKTDRYLSPDVKFLVNPECYHRICESCVDRIFSLGPAQCPYKGCDKILRKNKFKTQIFDDVEVEKEVDIRKRVFNVFNKTIDDFNGDLVEYNKYLEEVEDIIYKLDHGIDVAKTEEKLRTYEELNKQLIMNNLERSRTEIESFEQRQKFEKEMKLKKRLLERQIEEEERMNKEWTKKEIVNRLSTTTQDINETIEGVKNTVKLKKSSARRKLEELNRVLKNNPYFNSNVNVQNSRLKDAVPFTPFNGDREAHPRFTLKGSVYNDPFIKDLEHRKEFIASGFNTNYAYERVLTEAFMGLGCVISEEL
# B2: Tfb1 (protein, UniProt P32776 1-642)
# chain: MSHSGAAIFEKVSGIIAINEDVSPAELTWRSTDGDKVHTVVLSTIDKLQATPASSEKMMLRLIGKVDESKKRKDNEGNEVVPKPQRHMFSFNNRTVMDNIKMTLQQIISRYKDADIYEEKRRREESAQHTETPMSSSSVTAGTPTPHLDTPQLNNGAPLINTAKLDDSLSKEKLLTNLKLQQSLLKGNKVLMKVFQETVINAGLPPSEFWSTRIPLLRAFALSTSQKVGPYNVLSTIKPVASSENKVNVNLSREKILNIFENYPIVKKAYTDNVPKNFKEPEFWARFFSSKLFRKLRGEKIMQNDRGDVIIDRYLTLDQEFDRKDDDMLLHPVKKIIDLDGNIQDDPVVRGNRPDFTMQPGVDINGNSDGTVDILKGMNRLSEKMIMALKNEYSRTNLQNKSNITNDEEDEDNDERNELKIDDLNESYKTNYAIIHLKRNAHEKTTDNDAKSSADSIKNADLKVSNQQMLQQLSLVMDNLINKLDLNQVVPNNEVSNKINKRVITAIKINAKQAKHNNVNSALGSFVDNTSQANELEVKSTLPIDLLESCRMLHTTCCEFLKHFYIHFQSGEQKQASTVKKLYNHLKDCIEKLNELFQDVLNGDGESMSNTCTAYLKPVLNSITLATHKYDEYFNEYNNNSN
# B3: Tfb2 YL399–400AA, C-terminal 3× FLAG-tagged (protein, UniProt Q02939 1-513)
# chain: MSDYSLKHSVTQYLEEIPQQVQNRLYTSPATCLAIYRILPPLAKFFIMAMVFNENEVPLLDLDKWVNSNGKLQFQNAIKSMKSLHLLIPNKSSGTLMINLNPTFKISLRNALTGGEVQNSFGVVVEENVVSLDLLDEYSANKWETILHFMVGTPLAKIPSEKVLNLLKHSKLMEEVNSTGEFKITNEGFQFLLQEINSQLWTLLLQYLKMIETSKMDLVDVLHFIFMLGALEVGKAYKIDALSETQRIMLQDMRDYGLVFQKHSNDSIFYPTKLALMLTSDTKTIRSASNAMDSVLRQNREEPSVNEDGANGKSTTDITTSDDLNKAGLKNQDIPDGSLIVETNFKIYSYSNSPLQIAVLSLFVHLKARFVNMVLGQITRESIRRALTNGITADQIIAAAETHAHPQMRRLAEEKLEKKLELDPNCKEPLQVLPPTVVDQIRLWQLELDRVITYEGSLYSDFETSQEYNLLSKYAQDIGVLLWKDDKKKKFFISKEGNSQVLDFAKRKLKKKQ
# B4: Tfb2 RF369–370AA, C-terminal 3× FLAG-tagged (protein, UniProt Q02939 1-513)
# chain: B3 chain with R369A, F370A, A399Y, A400L
# B5: C-terminal 3× FLAG-tagged WT Tfb2 (protein, UniProt Q02939 1-513)
# chain: B3 chain with A399Y, A400L
# B6: Tfb2 YY348+350AA, C-terminal 3× FLAG-tagged (protein, UniProt Q02939 1-513)
# chain: B3 chain with Y348A, Y350A, A399Y, A400L
# Molecular target: T1, C-terminal protein A (pA)-tagged Rad3 (Saccharomyces cerevisiae)
# Test: co-IP; Rad3-pA on IgG-Dynabeads from 4 mg yeast whole-cell extract overnight at 4 °C; TEV elution; Western blot; strains with FLAG-tagged WT or mutant Tfb2 as the sole source of Tfb2, TFB6 or tfb6Δ background
row,binding,Binder
1,binds,B1
2,binds,B2
3,binds,B3
4,binds,B4
5,binds,B5
6,binds,B6
